Assay results: patent US4721704A, “Potent synthetic atrial peptide analogs” (Peninsula Laboratories, Inc., priority 1986, dated 1988)
Part of at least one peptide drawing is inferred or uncertain, most often the ends. Bridge positions count the residues as written; N and C are the ends. Square brackets hold non-standard residues; d marks the D form. Peptide text beside a SMILES is read from it. Mpa = O=C(O)CCS

Legend:
rat lung tissue = assay: Cyclic GMP assay in rat lung tissue (radioimmunoassay); type: cell-based; settings: 37° C., 10 min; for increase of cyclic GMP content with respect to Atriopeptin III: 10^-8 M, versus Atriopeptin III at 10^-8 M (FIG. 1)
antiserum = assay: Binding to antiserum (inhibition of 125I-α-hANP binding); settings: compared with α-ANP
Wistar rats [1] = assay: Depressor action (mean arterial pressure) in anesthetized rats; type: in vivo, rat
Wistar rats [2] = assay: Diuretic effect (urine flow) in anesthetized rats; type: in vivo, rat; settings: for diuretic effect, times more potent than Atriopeptin III: rat (FIG. 2)
[3] = rat, i.v., compared with Atriopeptin III

## CC[C@H](C)[C@@H]1NC(=O)[C@H](CCCNC(=N)N)NC(=O)[C@H](CC(=O)O)NC(=O)[C@H]([C@@H](C)CC)NC(=O)[C@H](CCCNC(=N)N)NC(=O)CNC(=O)[C@@H](C)NC(=O)[C@H](Cc2ccccc2)NC(=O)CCSSC[C@@H](C(=O)N[C@@H](CC(N)=O)C(=O)N[C@@H](CO)C(=O)N[C@@H](Cc2ccccc2)C(=O)N[C@@H](CCCNC(=N)N)C(N)=O)NC(=O)CNC(=O)[C@H](CC(C)C)NC(=O)[C@@H](C)NC(=O)[C@H](CO)NC(=O)[C@H](CCC(N)=O)NC(=O)[C@H](C)NC(=O)CNC1=O [inventive embodiment VI] ([Mpa]F[dA]GRIDRIGAQS[dA]LGCNSFR-NH2; disulfide 1-17)
Rat lung tissue
  increase of cyclic GMP content with respect to Atriopeptin III: ~2.2 times

## CC[C@H](C)[C@@H]1NC(=O)[C@H](CCCNC(=N)N)NC(=O)[C@H](CC(=O)O)NC(=O)[C@H]([C@@H](C)CC)NC(=O)[C@H](CCCNC(=N)N)NC(=O)CNC(=O)[C@@H](C)NC(=O)[C@H](Cc2ccccc2)NC(=O)CCSSC[C@@H](C(=O)N[C@@H](CC(N)=O)C(=O)N[C@@H](CO)C(=O)N[C@@H](Cc2ccccc2)C(=O)N[C@@H](CCCNC(=N)N)C(=O)N[C@@H](Cc2ccc(O)cc2)C(N)=O)NC(=O)CNC(=O)[C@H](CC(C)C)NC(=O)CNC(=O)[C@H](CO)NC(=O)[C@H](CCC(N)=O)NC(=O)[C@H](C)NC(=O)CNC1=O [inventive embodiment IV] ([Mpa]F[dA]GRIDRIGAQSGLGCNSFRY-NH2; disulfide 1-17)
antiserum
  binding to antiserum: binds as well as α-ANP to antiserum
Wistar rats [1]; doses of 1.3 or 10 mol/kg, 3 min. after I.V. administration, rat (FIG. 4)
  hypotensive effect, times more potent than Atriopeptin III: up to 10 times
Wistar rats [1]; rat, i.v. bolus, compared with Atriopeptin III
  peak depressor effect: more potent peak depressor effect
Rat lung tissue; 10^-7 M
  increase of cyclic GMP content: about 2.6 fold
Rat lung tissue
  increase of cyclic GMP content with respect to Atriopeptin III: about 8 times
Wistar rats [2]; dose 0.3 nmol/kg i.v.
  diuretic effect, times more potent than Atriopeptin III: 2.7 times
Wistar rats [2]; dose 1 nmol/kg i.v.
  diuretic effect, times more potent than Atriopeptin III: 2.6 times
Wistar rats [2]; dose 3 nmol/kg i.v.
  diuretic effect, times more potent than Atriopeptin III: 4 times
Wistar rats [2]; [3]
  diuretic time course: simlar to that of Atriopeptin III
  peak diuretic effect: more powerful

## CC[C@H](C)[C@@H]1NC(=O)[C@H](CCCNC(=N)N)NC(=O)[C@H](CC(=O)O)NC(=O)[C@H]([C@@H](C)CC)NC(=O)[C@H](CCCNC(=N)N)NC(=O)CNC(=O)[C@@H](C)NC(=O)[C@H](Cc2ccccc2)NC(=O)CCSSC[C@@H](C(=O)N[C@@H](CC(N)=O)C(=O)N[C@@H](CO)C(=O)N[C@@H](Cc2ccccc2)C(=O)N[C@@H](CCCNC(=N)N)C(N)=O)NC(=O)[C@@H](C)NC(=O)[C@H](CC(C)C)NC(=O)CNC(=O)[C@H](CO)NC(=O)[C@H](CCC(N)=O)NC(=O)[C@H](C)NC(=O)CNC1=O [inventive embodiment V] ([Mpa]F[dA]GRIDRIGAQSGL[dA]CNSFR-NH2; disulfide 1-17)
Rat lung tissue
  increase of cyclic GMP content with respect to Atriopeptin III: ~4.5 times
